Entries after “also recorded” stand apart in the source; their conditions may differ. At least one structure is not confirmed: it was looked up by name or label, or the drawing left a doubt.
How the values were obtained:
PDK1 [1] = assay: FRET emission ratio imaging of PDK1 activation reporters (PARE, Lyn-PARE, PARE-Kras) in NIH 3T3 cells; format: cell-based; settings: serum-starved NIH 3T3 cells, then 50 μM LY294002
Source text: (§1) PARE was generated by sandwiching full-length PDK1 between a FRET pair, ECFP and Citrine. Lyn-PARE and PARE-Kras were generated by the addition of the N-terminal portion of the Lyn kinase gene (GCIKSKRKDKD; SEQ ID NO:6) at the 5′ end and a C(A)2X tag (C is cysteine, A is an aliphatic amino acid, and X is any amino acid) at the 3′ end (KKKKKSKTKCVIM; SEQ ID NO:7) of PARE, respectively. Lyn-PARE R472/474A was generated by site-directed mutagenesis. PTEN A4 (fused with a C-terminal fluorescent protein) was targeted to raft and non-raft regions of plasma membrane with the same set of targeting motifs. All of the constructs were generated in a modified version of the mammalian expression vector pcDNA 3.
(§2) Cells were plated on sterilized glass coverslips in 35 mm dishes and were grown to 40% confluency in medium at 37° C. with 5% CO2, then transfected with Lipofectamine 2000. In the case of NIH 3T3 and HeLa cells, the cells were serum-starved for 24 h. For imaging, cells were washed with Hanks' balanced salt solution (HBSS) and imaged in the dark at room temperature. […] Imaging data were analyzed with Metafluor 6.2 software (Universal Imaging, Downingtown, Pa.). Fluorescence images were background-corrected by deducting the background (regions with no cells) from the emission intensities of CFP or YFP. […]

PDK1 [2] = assay: FRET emission ratio imaging of PDK1 activation reporters in HeLa cells; format: cell-based; settings: serum-starved HeLa cells; 100 ng/ml EGF, then 50 μM LY294002
Source text: as §1, §2

O=c1cc(N2CCOCC2)oc2c(-c3ccccc3)cccc12 [LY294002]
effect on the stabilized PDGF-stimulated emission ratio change of Lyn-PARE (PDK1 [1]; 50 ng/ml PDGF): reversal of the response
effect on the stabilized PV-stimulated emission ratio change of Lyn-PARE (PDK1 [1]; PV): reversal of the response
effect on the EGF-stimulated emission ratio change of Lyn-PARE (PDK1 [2]): reversal of the response; also recorded: reversed the response of Lyn-PARE

Reference: US20110275103A1, “EMISSION RATIOMETRIC REPORTERS OF MEMBRANE PDK1 ACTIVATION” (THE JOHNS HOPKINS UNIVERSITY, priority 2010, published 2011)
